These are yes or no findings as the source states them, for the method shown. Binding seen in cells or lysates may run through a third protein. These calls come from enrichment with a bait or labelling near it, and not all partners need be listed.
Biological target: roundabout guidance receptor 1 (ROBO1) (human (endogenous in KYSE450 and TE1)) (UniProt Q9Y6N7)
Assay: affinity purification with mass spectrometry; endogenous ROBO1 immunoprecipitated with anti-ROBO1 antibodies from ESCC cells, LC-MS of the sediment

Chains of the proteins cited; added tags and fusions are not shown. Residues count along the entry.
UniProt Q9Y6N7, residues 26-1651: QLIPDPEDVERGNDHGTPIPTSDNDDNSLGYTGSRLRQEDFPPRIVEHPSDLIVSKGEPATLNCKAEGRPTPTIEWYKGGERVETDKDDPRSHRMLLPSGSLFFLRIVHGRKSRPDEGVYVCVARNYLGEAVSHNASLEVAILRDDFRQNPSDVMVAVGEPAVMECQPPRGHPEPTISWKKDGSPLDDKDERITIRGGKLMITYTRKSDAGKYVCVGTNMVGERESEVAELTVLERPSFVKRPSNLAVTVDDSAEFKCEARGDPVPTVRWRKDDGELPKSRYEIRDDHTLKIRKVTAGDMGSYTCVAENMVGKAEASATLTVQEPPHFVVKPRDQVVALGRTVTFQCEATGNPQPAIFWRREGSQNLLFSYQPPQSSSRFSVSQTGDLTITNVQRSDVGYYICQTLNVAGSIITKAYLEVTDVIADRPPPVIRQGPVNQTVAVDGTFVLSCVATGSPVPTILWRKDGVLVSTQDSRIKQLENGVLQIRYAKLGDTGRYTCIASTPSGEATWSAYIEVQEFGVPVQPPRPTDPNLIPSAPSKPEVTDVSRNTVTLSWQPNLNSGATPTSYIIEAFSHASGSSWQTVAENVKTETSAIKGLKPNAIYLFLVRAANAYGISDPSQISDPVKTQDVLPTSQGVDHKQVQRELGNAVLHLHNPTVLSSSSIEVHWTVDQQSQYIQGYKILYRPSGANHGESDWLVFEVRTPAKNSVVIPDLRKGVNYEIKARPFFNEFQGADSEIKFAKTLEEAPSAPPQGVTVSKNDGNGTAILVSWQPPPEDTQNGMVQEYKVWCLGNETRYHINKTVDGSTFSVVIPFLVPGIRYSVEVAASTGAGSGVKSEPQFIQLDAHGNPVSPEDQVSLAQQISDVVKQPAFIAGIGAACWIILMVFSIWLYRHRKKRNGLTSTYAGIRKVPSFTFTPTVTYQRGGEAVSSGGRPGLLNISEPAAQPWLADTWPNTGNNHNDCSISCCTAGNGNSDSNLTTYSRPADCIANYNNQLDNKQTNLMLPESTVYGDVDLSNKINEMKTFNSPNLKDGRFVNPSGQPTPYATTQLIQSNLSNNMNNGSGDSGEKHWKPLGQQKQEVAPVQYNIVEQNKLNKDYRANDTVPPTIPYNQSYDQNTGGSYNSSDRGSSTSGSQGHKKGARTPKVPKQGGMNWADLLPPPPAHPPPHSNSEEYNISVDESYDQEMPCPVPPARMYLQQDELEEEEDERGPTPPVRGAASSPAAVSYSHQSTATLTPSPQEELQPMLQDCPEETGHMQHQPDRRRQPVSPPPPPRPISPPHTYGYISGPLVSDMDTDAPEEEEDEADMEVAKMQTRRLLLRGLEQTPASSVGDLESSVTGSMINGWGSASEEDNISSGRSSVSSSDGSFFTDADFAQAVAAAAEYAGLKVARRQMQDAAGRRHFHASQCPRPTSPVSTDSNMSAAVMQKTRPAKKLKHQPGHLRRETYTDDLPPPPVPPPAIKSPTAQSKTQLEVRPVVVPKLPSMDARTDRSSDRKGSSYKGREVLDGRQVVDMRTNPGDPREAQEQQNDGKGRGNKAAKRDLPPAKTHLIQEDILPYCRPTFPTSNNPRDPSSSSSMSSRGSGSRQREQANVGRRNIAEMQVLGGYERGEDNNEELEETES

binding: binds
B1: G3BP2 (Ras GTPase-activating protein-binding protein 2) (protein, UniProt Q9UN86 1-482)
chain: MVMEKPSPLLVGREFVRQYYTLLNKAPEYLHRFYGRNSSYVHGGVDASGKPQEAVYGQNDIHHKVLSLNFSECHTKIRHVDAHATLSDGVVVQVMGLLSNSGQPERKFMQTFVLAPEGSVPNKFYVHNDMFRYEDEVFGDSEPELDEESEDEVEEEQEERQPSPEPVQENANSGYYEAHPVTNGIEEPLEESSHEPEPEPESETKTEELKPQVEEKNLEELEEKSTTPPPAEPVSLPQEPPKAFSWASVTSKNLPPSGTVSSSGIPPHVKAPVSQPRVEAKPEVQSQPPRVREQRPRERPGFPPRGPRPGRGDMEQNDSDNRRIIRYPDSHQLFVGNLPHDIDENELKEFFMSFGNVVELRINTKGVGGKLPNFGFVVFDDSEPVQRILIAKPIMFRGEVRLNVEEKKTRAARERETRGGGDDRRDIRRNDRGPGGPRGIVGGGMMRDRDGRGPPPRGGMAQKLGSGRGTGQMEGRFTGQRR
